Reference: paper PMC10166787
No constants are given. Whether binding was seen depends on the method and setting. In cells and extracts the contact can be indirect. Some results given as binding are weak or reduced against the parent protein; the word gives no strength. Sequences can lack the tags named with a protein.

Chains of the proteins cited; added tags and fusions are not shown. Lines headed by an entry give the natural chain unless they say otherwise; changes in a name come on top. A line that says so, or that is headed by a name, gives the form on record, which may keep a tag or linker. Residues count along the entry.
UniProt Q9BV86: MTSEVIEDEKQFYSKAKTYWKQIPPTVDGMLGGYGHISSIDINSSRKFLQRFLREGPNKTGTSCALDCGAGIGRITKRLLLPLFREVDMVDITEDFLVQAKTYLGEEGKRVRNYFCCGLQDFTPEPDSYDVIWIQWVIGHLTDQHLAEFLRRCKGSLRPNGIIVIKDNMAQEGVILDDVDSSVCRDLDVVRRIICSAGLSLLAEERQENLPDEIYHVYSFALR
His-tagged recombinant METTL11A (pETDuet-1): residues 2-223 of Q9BV86

What was measured:
[1] = molecular target: His-tagged recombinant METTL11A (pETDuet-1) (human) (UniProt Q9BV86); assay: pull-down; co-purification: one His-tagged and one untagged protein co-expressed in bacteria from pETDuet-1, purified by the His tag, seen on a gel
METTL11A-FLAG (human) = METTL11A-FLAG (human) (UniProt Q9BV86); assay: co-IP; HEK293T cells co-transfected with a FLAG and a GFP construct; lysis in 50 mM Tris, 300 mM NaCl, 5 mM MgCl2, 1% NP-40, 7 mM BME; anti-FLAG M2 agarose, 1 to 2 h at 4 °C; washes with PBS + 0.1% NP-40 + 500 mM NaCl; Western blot with anti-GFP
METTL11B-FLAG (human) [2] = molecular target: METTL11B-FLAG (human) (UniProt Q5VVY1); assay: as above
METTL11B-FLAG (human) [3] = molecular target: METTL11B-FLAG (human) (UniProt Q5VVY1); assay: co-IP; control HCT116 cells and METTL11A KO (CRISPR-Cas9) HCT116 cells transfected with METTL11B-FLAG and METTL13-GFP; anti-FLAG M2 agarose; washes with PBS + 0.1% NP-40 + 500 mM NaCl; Western blot with anti-GFP

Row | binding (METTL11A-FLAG (human)) | further results | Binder
1 | – | binding [1]: binds | Untagged recombinant METTL13 (pETDuet-1) (enzyme, UniProt Q8N6R0 1-699) MNLLPKSSREFGSVDYWEKFFQQRGKKAFEWYGTYLELCGVLHKYIKPREKVLVIGCGNSELSEQLYDVGYRDIVNIDISEVVIKQMKECNATRRPQMSFLKMDMTQMEFPDASFQVVLDKGTLDAVLTDEEEKTLQQVDRMLAEVGRVLQVGGRYLCISLAQAHILKKAVGHFSREGWMVRVHQVANSQDQVLEAEPQFSLPVFAFIMTKFRPVPGSALQIFELCAQEQRKPVRLESAERLAEAVQERQQYAWLCSQLRRKARLGSVSLDLCDGDTGEPRYTLHVVDSPTVKPSRDNHFAIFIIPQGRETEWLFGMDEGRKQLAASAGFRRLITVALHRGQQYESMDHIQAELSARVMELAPAGMPTQQQVPFLSVGGDIGVRTVQHQDCSPLSGDYVIEDVQGDDKRYFRRLIFLSNRNVVQSEARLLKDVSHKAQKKRKKDRKKQRPADAEDLPAAPGQSIDKSYLCCEHHKAMIAGLALLRNPELLLEIPLALLVVGLGGGSLPLFVHDHFPKSCIDAVEIDPSMLEVATQWFGFSQSDRMKVHIADGLDYIASLAGGGEARPCYDVIMFDVDSKDPTLGMSCPPPAFVEQSFLQKVKSILTPEGVFILNLVCRDLGLKDSVLAGLKAVFPLLYVRRIEGEVNEILFCQLHPEQKLATPELLETAQALERTLRKPGRGWDDTYVLSDMLKTVKIV
2 | binds | – | METTL13 N-terminal fragment (residues M1-Y344)-GFP (domain or fragment, UniProt Q8N6R0 1-344) MNLLPKSSREFGSVDYWEKFFQQRGKKAFEWYGTYLELCGVLHKYIKPREKVLVIGCGNSELSEQLYDVGYRDIVNIDISEVVIKQMKECNATRRPQMSFLKMDMTQMEFPDASFQVVLDKGTLDAVLTDEEEKTLQQVDRMLAEVGRVLQVGGRYLCISLAQAHILKKAVGHFSREGWMVRVHQVANSQDQVLEAEPQFSLPVFAFIMTKFRPVPGSALQIFELCAQEQRKPVRLESAERLAEAVQERQQYAWLCSQLRRKARLGSVSLDLCDGDTGEPRYTLHVVDSPTVKPSRDNHFAIFIIPQGRETEWLFGMDEGRKQLAASAGFRRLITVALHRGQQY
3 | binds | binding (METTL11B-FLAG (human) [2]): binds; binding (METTL11B-FLAG (human) [3]): binds | METTL13-GFP (enzyme, UniProt Q8N6R0 1-699) MNLLPKSSREFGSVDYWEKFFQQRGKKAFEWYGTYLELCGVLHKYIKPREKVLVIGCGNSELSEQLYDVGYRDIVNIDISEVVIKQMKECNATRRPQMSFLKMDMTQMEFPDASFQVVLDKGTLDAVLTDEEEKTLQQVDRMLAEVGRVLQVGGRYLCISLAQAHILKKAVGHFSREGWMVRVHQVANSQDQVLEAEPQFSLPVFAFIMTKFRPVPGSALQIFELCAQEQRKPVRLESAERLAEAVQERQQYAWLCSQLRRKARLGSVSLDLCDGDTGEPRYTLHVVDSPTVKPSRDNHFAIFIIPQGRETEWLFGMDEGRKQLAASAGFRRLITVALHRGQQYESMDHIQAELSARVMELAPAGMPTQQQVPFLSVGGDIGVRTVQHQDCSPLSGDYVIEDVQGDDKRYFRRLIFLSNRNVVQSEARLLKDVSHKAQKKRKKDRKKQRPADAEDLPAAPGQSIDKSYLCCEHHKAMIAGLALLRNPELLLEIPLALLVVGLGGGSLPLFVHDHFPKSCIDAVEIDPSMLEVATQWFGFSQSDRMKVHIADGLDYIASLAGGGEARPCYDVIMFDVDSKDPTLGMSCPPPAFVEQSFLQKVKSILTPEGVFILNLVCRDLGLKDSVLAGLKAVFPLLYVRRIEGEVNEILFCQLHPEQKLATPELLETAQALERTLRKPGRGWDDTYVLSDMLKTVKIV
4 | binds | – | METTL11B-GFP D232N (enzyme, UniProt Q5VVY1 1-283) MAHRGAHFAFRSRWQKTDDELCRHSMSFILHKAIRNDFFQSYLYLLEKIPLVKLYALTSQVINGEMQFYARAKLFYQEVPATEEGMMGNFIELSSPDIQASQKFLRKFVGGPGRAGTDCALDCGSGIGRVSKHVLLPVFNSVELVDMMESFLLEAQNYLQVKGDKVESYHCYSLQEFTPPFRRYDVIWIQWVSGHLTDKDLLAFLSRCRDGLKENGIIILKDNVAREGCILNLSDSSVTRDMDILRSLIRKSGLVVLGQEKQDGFPEQCIPVWMFALHSDRHS
5 | binds | – | METTL11B-GFP Q67H (enzyme, UniProt Q5VVY1 1-283) MAHRGAHFAFRSRWQKTDDELCRHSMSFILHKAIRNDFFQSYLYLLEKIPLVKLYALTSQVINGEMHFYARAKLFYQEVPATEEGMMGNFIELSSPDIQASQKFLRKFVGGPGRAGTDCALDCGSGIGRVSKHVLLPVFNSVELVDMMESFLLEAQNYLQVKGDKVESYHCYSLQEFTPPFRRYDVIWIQWVSGHLTDKDLLAFLSRCRDGLKENGIIILKDNVAREGCILDLSDSSVTRDMDILRSLIRKSGLVVLGQEKQDGFPEQCIPVWMFALHSDRHS
6 | binds | – | METTL11B-GFP F68L (enzyme, UniProt Q5VVY1 1-283) MAHRGAHFAFRSRWQKTDDELCRHSMSFILHKAIRNDFFQSYLYLLEKIPLVKLYALTSQVINGEMQLYARAKLFYQEVPATEEGMMGNFIELSSPDIQASQKFLRKFVGGPGRAGTDCALDCGSGIGRVSKHVLLPVFNSVELVDMMESFLLEAQNYLQVKGDKVESYHCYSLQEFTPPFRRYDVIWIQWVSGHLTDKDLLAFLSRCRDGLKENGIIILKDNVAREGCILDLSDSSVTRDMDILRSLIRKSGLVVLGQEKQDGFPEQCIPVWMFALHSDRHS
7 | binds | – | METTL11B-GFP V224L (enzyme, UniProt Q5VVY1 1-283) MAHRGAHFAFRSRWQKTDDELCRHSMSFILHKAIRNDFFQSYLYLLEKIPLVKLYALTSQVINGEMQFYARAKLFYQEVPATEEGMMGNFIELSSPDIQASQKFLRKFVGGPGRAGTDCALDCGSGIGRVSKHVLLPVFNSVELVDMMESFLLEAQNYLQVKGDKVESYHCYSLQEFTPPFRRYDVIWIQWVSGHLTDKDLLAFLSRCRDGLKENGIIILKDNLAREGCILDLSDSSVTRDMDILRSLIRKSGLVVLGQEKQDGFPEQCIPVWMFALHSDRHS
8 | no binding | – | METTL13 C-terminal fragment (residues E345-V699)-GFP (domain or fragment, UniProt Q8N6R0 345-699) ESMDHIQAELSARVMELAPAGMPTQQQVPFLSVGGDIGVRTVQHQDCSPLSGDYVIEDVQGDDKRYFRRLIFLSNRNVVQSEARLLKDVSHKAQKKRKKDRKKQRPADAEDLPAAPGQSIDKSYLCCEHHKAMIAGLALLRNPELLLEIPLALLVVGLGGGSLPLFVHDHFPKSCIDAVEIDPSMLEVATQWFGFSQSDRMKVHIADGLDYIASLAGGGEARPCYDVIMFDVDSKDPTLGMSCPPPAFVEQSFLQKVKSILTPEGVFILNLVCRDLGLKDSVLAGLKAVFPLLYVRRIEGEVNEILFCQLHPEQKLATPELLETAQALERTLRKPGRGWDDTYVLSDMLKTVKIV
